According to the supplement of paper PMC10849652:
The list shows a part of the results.

Chains of the proteins cited; added tags and fusions are not shown. Lines headed by an entry give the natural chain unless they say otherwise; changes in a name come on top.
UniProt Q8NDI1: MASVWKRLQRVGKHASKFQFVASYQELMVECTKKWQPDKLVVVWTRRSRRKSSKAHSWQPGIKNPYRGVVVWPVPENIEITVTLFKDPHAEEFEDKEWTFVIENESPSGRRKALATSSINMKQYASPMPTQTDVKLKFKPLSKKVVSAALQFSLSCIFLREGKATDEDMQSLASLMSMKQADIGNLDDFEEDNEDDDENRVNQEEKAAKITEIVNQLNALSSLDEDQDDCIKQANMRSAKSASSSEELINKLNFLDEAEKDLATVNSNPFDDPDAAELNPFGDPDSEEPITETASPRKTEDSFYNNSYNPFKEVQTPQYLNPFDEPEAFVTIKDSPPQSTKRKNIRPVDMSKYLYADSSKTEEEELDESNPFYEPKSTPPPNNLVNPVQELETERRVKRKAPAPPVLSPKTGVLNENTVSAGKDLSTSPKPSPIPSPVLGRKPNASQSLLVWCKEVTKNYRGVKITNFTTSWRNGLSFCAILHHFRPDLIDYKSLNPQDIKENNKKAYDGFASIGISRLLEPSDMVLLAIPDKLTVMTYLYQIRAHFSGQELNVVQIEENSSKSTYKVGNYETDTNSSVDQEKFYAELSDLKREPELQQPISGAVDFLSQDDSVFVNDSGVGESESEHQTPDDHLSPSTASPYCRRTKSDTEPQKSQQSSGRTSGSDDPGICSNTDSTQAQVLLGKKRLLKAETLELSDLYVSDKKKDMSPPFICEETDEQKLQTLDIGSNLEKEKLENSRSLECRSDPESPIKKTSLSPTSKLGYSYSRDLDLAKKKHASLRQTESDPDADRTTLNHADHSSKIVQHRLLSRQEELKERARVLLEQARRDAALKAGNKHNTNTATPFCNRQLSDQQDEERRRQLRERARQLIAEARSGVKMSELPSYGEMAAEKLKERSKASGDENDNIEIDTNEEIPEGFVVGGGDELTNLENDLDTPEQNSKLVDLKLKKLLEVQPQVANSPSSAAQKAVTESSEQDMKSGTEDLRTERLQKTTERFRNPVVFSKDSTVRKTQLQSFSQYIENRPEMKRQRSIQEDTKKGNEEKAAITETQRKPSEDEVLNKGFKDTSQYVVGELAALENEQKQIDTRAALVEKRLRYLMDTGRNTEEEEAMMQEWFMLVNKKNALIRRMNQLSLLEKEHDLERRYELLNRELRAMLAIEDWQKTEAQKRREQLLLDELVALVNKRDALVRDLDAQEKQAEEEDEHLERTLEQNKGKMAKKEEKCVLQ
UniProt Q14919: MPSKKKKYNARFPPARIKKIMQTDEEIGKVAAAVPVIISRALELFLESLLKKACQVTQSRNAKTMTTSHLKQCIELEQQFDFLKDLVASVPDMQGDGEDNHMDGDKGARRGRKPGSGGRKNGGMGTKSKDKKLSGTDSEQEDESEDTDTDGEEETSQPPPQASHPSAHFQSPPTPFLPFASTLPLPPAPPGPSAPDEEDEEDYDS
UniProt Q92785, whole entry, looked up: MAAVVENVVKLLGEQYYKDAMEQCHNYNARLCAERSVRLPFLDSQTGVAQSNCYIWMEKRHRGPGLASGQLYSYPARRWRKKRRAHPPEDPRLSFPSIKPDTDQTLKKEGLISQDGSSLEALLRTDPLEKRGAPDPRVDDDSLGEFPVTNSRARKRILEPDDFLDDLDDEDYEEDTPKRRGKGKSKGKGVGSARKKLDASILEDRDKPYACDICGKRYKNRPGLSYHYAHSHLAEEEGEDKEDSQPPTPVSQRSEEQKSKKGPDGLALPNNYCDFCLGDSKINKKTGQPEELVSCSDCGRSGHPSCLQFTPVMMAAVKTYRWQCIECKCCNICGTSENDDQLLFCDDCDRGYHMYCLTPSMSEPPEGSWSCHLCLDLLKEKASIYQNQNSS
UniProt Q9GZT9: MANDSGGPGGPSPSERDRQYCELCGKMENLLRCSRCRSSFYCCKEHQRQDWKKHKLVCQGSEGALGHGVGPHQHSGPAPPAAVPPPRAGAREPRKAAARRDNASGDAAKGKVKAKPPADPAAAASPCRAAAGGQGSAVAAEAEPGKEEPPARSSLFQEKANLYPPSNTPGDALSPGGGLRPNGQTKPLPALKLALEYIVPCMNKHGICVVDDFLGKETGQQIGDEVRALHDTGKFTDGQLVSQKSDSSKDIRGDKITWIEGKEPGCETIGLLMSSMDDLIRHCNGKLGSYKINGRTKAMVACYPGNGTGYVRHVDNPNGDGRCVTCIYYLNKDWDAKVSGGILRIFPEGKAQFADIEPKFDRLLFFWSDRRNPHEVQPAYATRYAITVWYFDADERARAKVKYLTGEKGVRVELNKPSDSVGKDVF
UniProt Q9BVC3, whole entry, looked up: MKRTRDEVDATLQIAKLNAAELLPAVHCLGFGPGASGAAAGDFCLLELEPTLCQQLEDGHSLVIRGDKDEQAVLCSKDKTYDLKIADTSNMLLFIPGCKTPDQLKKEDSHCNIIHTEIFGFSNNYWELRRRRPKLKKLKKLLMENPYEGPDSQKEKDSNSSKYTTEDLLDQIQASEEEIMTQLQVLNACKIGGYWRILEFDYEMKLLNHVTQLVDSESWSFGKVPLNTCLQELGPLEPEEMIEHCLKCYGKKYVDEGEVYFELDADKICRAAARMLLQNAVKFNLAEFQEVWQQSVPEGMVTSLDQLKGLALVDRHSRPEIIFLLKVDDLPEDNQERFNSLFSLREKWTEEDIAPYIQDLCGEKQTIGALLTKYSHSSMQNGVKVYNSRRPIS
UniProt P30084: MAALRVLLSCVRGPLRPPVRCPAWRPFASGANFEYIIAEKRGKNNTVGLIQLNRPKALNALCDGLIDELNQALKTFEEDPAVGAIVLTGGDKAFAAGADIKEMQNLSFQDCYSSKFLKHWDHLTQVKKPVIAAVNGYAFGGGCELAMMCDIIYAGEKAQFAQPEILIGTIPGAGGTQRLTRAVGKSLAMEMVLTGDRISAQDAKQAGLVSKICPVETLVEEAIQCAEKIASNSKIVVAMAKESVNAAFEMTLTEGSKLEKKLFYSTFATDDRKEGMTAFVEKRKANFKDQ
UniProt Q9Y6G9, whole entry, looked up: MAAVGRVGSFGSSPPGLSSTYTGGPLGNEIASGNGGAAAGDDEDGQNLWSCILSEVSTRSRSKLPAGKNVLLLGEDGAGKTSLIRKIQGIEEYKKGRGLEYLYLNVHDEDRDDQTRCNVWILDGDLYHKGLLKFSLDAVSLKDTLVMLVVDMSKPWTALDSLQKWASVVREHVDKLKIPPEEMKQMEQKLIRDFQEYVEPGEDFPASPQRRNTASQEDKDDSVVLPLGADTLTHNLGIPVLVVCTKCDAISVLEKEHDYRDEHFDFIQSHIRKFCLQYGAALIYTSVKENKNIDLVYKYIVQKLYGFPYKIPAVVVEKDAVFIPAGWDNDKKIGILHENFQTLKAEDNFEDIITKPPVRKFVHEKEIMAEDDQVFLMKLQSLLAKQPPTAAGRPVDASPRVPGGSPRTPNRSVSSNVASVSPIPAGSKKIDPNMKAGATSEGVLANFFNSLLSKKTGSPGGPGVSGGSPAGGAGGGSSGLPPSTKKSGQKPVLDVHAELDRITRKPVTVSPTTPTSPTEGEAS
UniProt Q9H223: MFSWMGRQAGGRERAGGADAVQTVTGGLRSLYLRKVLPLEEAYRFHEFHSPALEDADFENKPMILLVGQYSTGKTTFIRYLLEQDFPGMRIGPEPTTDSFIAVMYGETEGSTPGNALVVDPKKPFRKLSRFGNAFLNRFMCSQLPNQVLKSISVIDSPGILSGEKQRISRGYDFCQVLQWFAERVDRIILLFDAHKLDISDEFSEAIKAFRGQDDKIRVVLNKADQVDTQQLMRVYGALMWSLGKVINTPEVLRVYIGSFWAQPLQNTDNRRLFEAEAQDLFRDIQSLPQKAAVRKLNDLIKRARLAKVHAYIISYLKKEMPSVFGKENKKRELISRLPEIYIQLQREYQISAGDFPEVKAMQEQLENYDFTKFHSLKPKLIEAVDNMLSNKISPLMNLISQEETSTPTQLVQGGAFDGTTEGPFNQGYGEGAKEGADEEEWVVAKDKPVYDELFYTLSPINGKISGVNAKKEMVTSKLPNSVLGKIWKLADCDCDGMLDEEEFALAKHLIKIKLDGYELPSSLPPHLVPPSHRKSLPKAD
UniProt Q15075: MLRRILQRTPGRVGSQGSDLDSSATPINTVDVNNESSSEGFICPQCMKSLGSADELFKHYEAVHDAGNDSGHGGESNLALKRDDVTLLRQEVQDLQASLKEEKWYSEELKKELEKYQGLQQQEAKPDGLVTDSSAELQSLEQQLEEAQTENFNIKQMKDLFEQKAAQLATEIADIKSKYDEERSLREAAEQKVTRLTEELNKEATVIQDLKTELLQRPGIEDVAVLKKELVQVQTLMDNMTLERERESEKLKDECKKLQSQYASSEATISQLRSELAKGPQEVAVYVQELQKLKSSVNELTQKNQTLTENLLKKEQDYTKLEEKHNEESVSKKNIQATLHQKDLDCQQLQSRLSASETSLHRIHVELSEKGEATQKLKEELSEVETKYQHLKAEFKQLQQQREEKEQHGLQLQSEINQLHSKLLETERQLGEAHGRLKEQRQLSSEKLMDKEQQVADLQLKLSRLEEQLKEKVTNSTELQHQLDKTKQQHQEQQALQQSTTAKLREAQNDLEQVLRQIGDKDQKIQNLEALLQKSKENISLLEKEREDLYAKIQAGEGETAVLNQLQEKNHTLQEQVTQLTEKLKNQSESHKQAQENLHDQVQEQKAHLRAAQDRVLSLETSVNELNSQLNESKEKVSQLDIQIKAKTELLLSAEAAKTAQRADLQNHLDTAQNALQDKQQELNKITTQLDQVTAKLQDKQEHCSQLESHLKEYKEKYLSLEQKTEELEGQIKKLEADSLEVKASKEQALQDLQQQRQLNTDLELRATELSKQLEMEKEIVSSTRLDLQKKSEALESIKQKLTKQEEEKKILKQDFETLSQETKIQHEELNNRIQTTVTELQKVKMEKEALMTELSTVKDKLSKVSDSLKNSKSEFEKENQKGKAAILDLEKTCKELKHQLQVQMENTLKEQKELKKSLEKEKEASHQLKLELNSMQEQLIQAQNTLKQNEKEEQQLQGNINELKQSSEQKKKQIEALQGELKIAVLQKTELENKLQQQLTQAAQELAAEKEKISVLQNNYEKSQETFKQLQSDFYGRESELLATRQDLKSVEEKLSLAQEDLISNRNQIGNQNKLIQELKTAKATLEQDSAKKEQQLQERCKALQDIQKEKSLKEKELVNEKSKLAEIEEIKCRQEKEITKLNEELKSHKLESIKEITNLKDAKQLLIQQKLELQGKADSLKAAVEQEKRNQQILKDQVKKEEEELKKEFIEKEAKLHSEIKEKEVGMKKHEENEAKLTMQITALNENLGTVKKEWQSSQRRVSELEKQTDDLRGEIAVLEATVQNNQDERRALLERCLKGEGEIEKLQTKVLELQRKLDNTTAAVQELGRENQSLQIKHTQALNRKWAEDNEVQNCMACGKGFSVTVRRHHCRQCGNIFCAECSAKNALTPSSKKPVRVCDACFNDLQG
UniProt P29692: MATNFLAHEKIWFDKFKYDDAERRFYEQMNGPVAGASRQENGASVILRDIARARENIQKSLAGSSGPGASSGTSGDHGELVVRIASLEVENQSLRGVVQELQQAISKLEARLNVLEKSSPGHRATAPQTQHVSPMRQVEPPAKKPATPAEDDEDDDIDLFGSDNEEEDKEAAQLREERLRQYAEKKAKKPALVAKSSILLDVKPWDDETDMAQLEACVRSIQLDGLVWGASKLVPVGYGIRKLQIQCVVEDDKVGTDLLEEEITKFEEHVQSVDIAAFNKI
UniProt Q96FX2: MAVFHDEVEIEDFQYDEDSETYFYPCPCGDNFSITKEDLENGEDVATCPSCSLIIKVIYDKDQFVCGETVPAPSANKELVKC
UniProt Q7Z388: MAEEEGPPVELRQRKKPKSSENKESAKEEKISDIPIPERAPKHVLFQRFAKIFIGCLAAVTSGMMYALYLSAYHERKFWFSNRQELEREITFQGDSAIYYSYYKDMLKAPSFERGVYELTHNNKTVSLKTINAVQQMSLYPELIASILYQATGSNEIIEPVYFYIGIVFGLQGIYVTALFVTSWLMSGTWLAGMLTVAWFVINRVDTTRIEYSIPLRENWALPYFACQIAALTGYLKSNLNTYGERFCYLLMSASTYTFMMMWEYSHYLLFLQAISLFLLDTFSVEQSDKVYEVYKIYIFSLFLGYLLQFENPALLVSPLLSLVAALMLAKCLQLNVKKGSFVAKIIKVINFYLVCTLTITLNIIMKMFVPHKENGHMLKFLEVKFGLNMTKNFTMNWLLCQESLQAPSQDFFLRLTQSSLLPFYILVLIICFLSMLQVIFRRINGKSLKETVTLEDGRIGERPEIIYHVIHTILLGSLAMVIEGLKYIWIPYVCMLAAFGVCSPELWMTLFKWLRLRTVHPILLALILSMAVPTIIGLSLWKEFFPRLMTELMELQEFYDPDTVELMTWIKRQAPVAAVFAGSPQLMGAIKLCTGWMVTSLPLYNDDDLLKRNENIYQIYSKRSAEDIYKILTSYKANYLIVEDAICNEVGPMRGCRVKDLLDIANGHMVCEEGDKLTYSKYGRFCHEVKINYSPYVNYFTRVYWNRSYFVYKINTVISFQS

Assays:
Assay in all cases: log2 fold change, soluble protein after heating vs DMSO (PISA); higher = thermal stabilisation; K562 lysate, 10 uM; active = over 0.2 and 3.5 SD of the protein, either way, in both replicates (recomputed)
[1] = compound: Cc1cn(-c2cc(NC(=O)c3ccc(C)c(Nc4nccc(-c5cccnc5)n4)c3)cc(C(F)(F)F)c2)cn1 [nilotinib]
Summary of the method: (§1)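 Pellets of K562 cells were dounce-homogenised in PBS pH 7.4 with 1 mM MgCl2, and the crude extract was held at 1 mg/mL protein for a 30 min treatment with 10 μM compound. Aliquots were heated for 3 min over 48°C-58°C and pooled before NP-40 was added to 0.5% at 4°C. The supernatant from 21,000xg for 90 min was quantified by TMTpro 16plex LC-MS/MS with channel sums equalised. Values are reported from duplicates as log-two fold change in thermal stability relative to solvent controls.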

[2] = compound: Cc1nc(Nc2n[nH]c3c2CN(C(=O)N[C@H](CN(C)C)c2ccccc2)C3(C)C)c2sccc2n1
Summary of the method: as §1

[3] = compound: Cc1nc(Nc2ncc(C(=O)Nc3c(C)cccc3Cl)s2)cc(N2CCN(CCO)CC2)n1 [dasatinib]
Summary of the method: as §1

[4] = compound: Cc1ncc(-c2ccnc(Nc3ccc(S(C)(=O)=O)cc3)n2)n1C(C)C
Summary of the method: as §1

[5] = compound: Cn1cc(-c2ccc3c(c2)CCN3C(=O)Cc2cccc(C(F)(F)F)c2)c2c(N)ncnc21
Summary of the method: as §1

[6] = compound: Cn1cc(CNCC2CCN(c3ncc(C(=O)NO)cn3)CC2)c2ccccc21 [quisinostat]
Summary of the method: as §1

[7] = compound: Cn1cncc1[C@@](N)(c1ccc(Cl)cc1)c1ccc2c(c1)c(-c1cccc(Cl)c1)cc(=O)n2C [tipifarnib]
Summary of the method: as §1

[8] = compound: NC(=O)Nc1cc(-c2cccc(F)c2)sc1C(=O)N[C@H]1CCCNC1
Summary of the method: as §1

[9] = compound: NC(=O)c1cnc(N[C@@H]2CCCC[C@@H]2N)nc1Nc1cccc(-n2nccn2)c1
Summary of the method: as §1

[10] = compound: NC1(c2ccc(-c3nc4ccn5c(=O)[nH]nc5c4cc3-c3ccccc3)cc2)CCC1
Summary of the method: as §1

Measured: log2 fold change

EHMT1 (UniProt Q9H9B1)
inactive: [1] -0.066 | [2] 0.036 | [3] -0.009 | [4] 0.018 | [5] 0.05 | [6] -0.058 | [7] 0.024 | [8] 0.012 | [9] 0.048 | [10] -0.054

EEF2 (UniProt P13639)
inactive: [1] 0.004 | [2] -0.003 | [3] 0.002 | [4] 0.012 | [5] -0.011 | [6] 0.046 | [7] 0.018 | [8] -0.01 | [9] -0.01 | [10] 0.006

EHBP1 isoform 2 (UniProt Q8NDI1)
inactive: [1] -0.005 | [2] -0.076 | [3] 0.057 | [4] 0.004 | [5] -0.01 | [6] -0.085 | [7] 0.03 | [8] 0.023 | [9] 0.036 | [10] 0.011

DRAP1 isoform 2 (UniProt Q14919)
inactive: [1] -0.02 | [2] 0.01 | [3] 0.039 | [4] 0.014 | [5] 0.012 | [6] -0.008 | [7] -0.01 | [8] -0.021 | [9] -0.015 | [10] -0.023

DPF2 (UniProt Q92785)
inactive: [1] -0.011 | [2] 0.014 | [3] 0.03 | [4] 0.019 | [5] 0.026 | [6] -0.01 | [7] -0.034 | [8] 0.002 | [9] 0.014 | [10] 0.015

EGLN1 (UniProt Q9GZT9)
inactive: [1] 0.006 | [2] 0.007 | [3] -0.045 | [4] -0.066 | [5] 0.03 | [6] -0.048 | [7] -0.05 | [8] 0.044 | [9] 0.039 | [10] 0.006

Quoted from above (two entries):
EHBP1 isoform 2 (UniProt Q8NDI1)
inactive: [1] -0.005 | [2] -0.076 | [3] 0.057 | [4] 0.004 | [5] -0.01 | [6] -0.085 | [7] 0.03 | [8] 0.023 | [9] 0.036 | [10] 0.011

DRAP1 isoform 2 (UniProt Q14919)
inactive: [1] -0.02 | [2] 0.01 | [3] 0.039 | [4] 0.014 | [5] 0.012 | [6] -0.008 | [7] -0.01 | [8] -0.021 | [9] -0.015 | [10] -0.023

(next part)

DSCC1 (UniProt Q9BVC3)
inactive: [1] 0.072 | [2] 0.053 | [3] 0.094 | [4] -0.08 | [5] -0.021 | [6] -0.113 | [7] -0.019 | [8] 0.025 | [9] 0.069 | [10] -0.017

ECHS1 (UniProt P30084)
inactive: [1] 0.006 | [2] -0.035 | [3] 0 | [4] 0.014 | [5] 0.028 | [6] 0.033 | [7] 0.027 | [8] -0.017 | [9] -0.007 | [10] 0.03

DYNC1LI1 (UniProt Q9Y6G9)
inactive: [1] 0.014 | [2] 0.022 | [3] -0.011 | [4] 0.025 | [5] 0.014 | [6] 0.009 | [7] -0.019 | [8] 0.005 | [9] 0.001 | [10] -0.013

DSTN (UniProt P60981)
inactive: [1] 0.01 | [2] 0.012 | [3] -0.013 | [4] 0.009 | [5] 0.034 | [6] 0.045 | [7] -0.005 | [8] -0.022 | [9] 0.022 | [10] -0.008

EHD4 (UniProt Q9H223)
inactive: [1] 0.023 | [2] 0.026 | [3] -0.065 | [4] 0 | [5] 0.145 | [6] -0.014 | [7] -0.015 | [8] 0.03 | [9] 0.007 | [10] 0.049

EEA1 (UniProt Q15075)
inactive: [1] -0.021 | [2] 0.009 | [3] 0.021 | [4] 0.007 | [5] 0.014 | [6] 0.002 | [7] 0.008 | [8] -0.008 | [9] -0.015 | [10] 0.02

EEF1D isoform 3 (UniProt P29692)
inactive: [6] 0.011 | [8] 0 | [9] -0.393 | [10] -0.056

DTX3L (UniProt Q8TDB6)
inactive: [3] -0.052 | [5] -0.057 | [6] -0.013 | [8] 0.053 | [10] 0.03

DPH3 (UniProt Q96FX2)
inactive: [3] -0.131 | [5] -0.17 | [6] -0.021 | [8] -0.003

DPY19L4 (UniProt Q7Z388)
inactive: [1] -0.117 | [2] -0.126 | [3] 0.162 | [4] 0.069 | [5] 0.062 | [6] -0.021 | [7] -0.021 | [8] -0.023 | [10] 0.011
